Reference: PMC5951852

Sequences of proteins named here, by UniProt entry; tags and fusion partners are left off.
UniProt P17098: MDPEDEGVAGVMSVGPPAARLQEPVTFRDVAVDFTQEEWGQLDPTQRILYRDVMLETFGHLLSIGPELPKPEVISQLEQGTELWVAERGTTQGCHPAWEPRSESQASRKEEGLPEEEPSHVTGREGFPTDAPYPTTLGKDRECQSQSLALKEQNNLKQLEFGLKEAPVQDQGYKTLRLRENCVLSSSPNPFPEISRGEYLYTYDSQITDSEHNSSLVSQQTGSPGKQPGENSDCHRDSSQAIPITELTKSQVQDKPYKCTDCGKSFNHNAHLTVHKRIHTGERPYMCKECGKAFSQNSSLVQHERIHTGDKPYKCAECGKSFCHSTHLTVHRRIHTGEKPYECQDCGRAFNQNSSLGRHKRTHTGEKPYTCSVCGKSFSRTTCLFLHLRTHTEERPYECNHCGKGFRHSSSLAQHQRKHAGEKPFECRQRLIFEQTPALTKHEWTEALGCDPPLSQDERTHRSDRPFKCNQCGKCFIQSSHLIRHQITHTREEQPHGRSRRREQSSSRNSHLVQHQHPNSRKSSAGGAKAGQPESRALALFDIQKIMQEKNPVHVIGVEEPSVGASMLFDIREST
UniProt O14628: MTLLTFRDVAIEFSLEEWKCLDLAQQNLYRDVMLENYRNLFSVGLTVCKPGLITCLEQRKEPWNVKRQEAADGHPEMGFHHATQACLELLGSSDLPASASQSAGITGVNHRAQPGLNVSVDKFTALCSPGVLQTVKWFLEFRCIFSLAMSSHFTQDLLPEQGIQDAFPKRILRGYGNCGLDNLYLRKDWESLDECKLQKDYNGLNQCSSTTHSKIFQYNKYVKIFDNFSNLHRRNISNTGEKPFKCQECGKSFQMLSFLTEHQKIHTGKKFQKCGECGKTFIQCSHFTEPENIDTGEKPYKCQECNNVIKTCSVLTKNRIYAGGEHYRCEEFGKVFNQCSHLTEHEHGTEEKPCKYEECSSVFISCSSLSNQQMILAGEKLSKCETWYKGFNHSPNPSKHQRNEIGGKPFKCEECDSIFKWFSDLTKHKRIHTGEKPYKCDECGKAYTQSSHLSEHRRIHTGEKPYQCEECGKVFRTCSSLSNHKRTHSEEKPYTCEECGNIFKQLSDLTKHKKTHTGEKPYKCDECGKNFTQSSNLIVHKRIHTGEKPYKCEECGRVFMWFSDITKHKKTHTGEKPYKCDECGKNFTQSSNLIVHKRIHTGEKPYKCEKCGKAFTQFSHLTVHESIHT
UniProt Q8NDW4: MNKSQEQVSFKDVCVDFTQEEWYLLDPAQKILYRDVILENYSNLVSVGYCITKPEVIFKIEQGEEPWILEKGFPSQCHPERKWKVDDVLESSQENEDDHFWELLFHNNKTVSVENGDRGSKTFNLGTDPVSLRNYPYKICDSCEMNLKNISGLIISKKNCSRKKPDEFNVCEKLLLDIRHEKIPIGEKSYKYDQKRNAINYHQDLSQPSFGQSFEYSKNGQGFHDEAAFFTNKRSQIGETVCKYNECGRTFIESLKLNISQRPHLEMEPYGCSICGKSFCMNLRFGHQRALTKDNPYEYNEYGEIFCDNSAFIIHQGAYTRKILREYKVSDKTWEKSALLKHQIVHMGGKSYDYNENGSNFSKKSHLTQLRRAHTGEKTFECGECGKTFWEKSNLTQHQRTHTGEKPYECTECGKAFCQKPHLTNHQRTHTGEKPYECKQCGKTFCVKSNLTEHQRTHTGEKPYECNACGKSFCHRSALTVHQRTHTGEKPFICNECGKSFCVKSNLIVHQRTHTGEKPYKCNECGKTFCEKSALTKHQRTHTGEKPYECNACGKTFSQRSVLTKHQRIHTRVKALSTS

These substances were tested against p53 (human (endogenous in HCT116 and NCM460)) (UniProt P04637) (assay: affinity purification with mass spectrometry; p53 immunoprecipitated from HCT116 p53+/+ cells at 0, 24 and 48 h after glucose starvation, then mass spectrometry).

binding, binds:
ZNF8 (from UniProt P17098 1-575)
ZNF195 (from UniProt O14628 1-629)
ZNF248 (from UniProt Q8NDW4 1-579)

Results are given in words; binding and its absence hold for the method and conditions named. Binding seen in cells or lysates may run through a third protein. A yes stands for co-enrichment or nearness to the bait. Other partners may have been found.
